PubChem BioAssay AID504764, Drosophila RNAi Screening Center, 2011
In all, the deposit lists about 22,000 reagents; below is an unselected part of those with a known target gene and a result. In the full data, 403 (1.9%) are marked active. 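Unnormalised raw counts per well; ratio z-scores behind the hit calls and whether each hit raises or lowers signal are not deposited.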 Not given: the amount of reagent.

Aim: 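Genome-wide screen for regulators of Notch-driven gene expression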 (primary screen)
Cells: Drosophila Kc167 cells
Reagents: long dsRNA against Drosophila genes
Timing: about 5 days (4 days dsRNA, then 24 h after transfection)
Challenge: transfection of constitutively active membrane-tethered Notch lacking the extracellular domain, read 24 h later
Read-out: 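Firefly luciferase from an E(spl)m3 reporter with active Notch, plus control-promoter and uninduced reporter wells for normalisation; unnormalised counts, duplicate wells a and b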
Direction: induced reporter light, run 1, well a and induced reporter light, run 1, well b: higher = more light from the Notch target reporter with active Notch; control promoter light, run 1, well a and control promoter light, run 1, well b: higher = more light from the viral control promoter (cell number, transfection, viability); uninduced reporter light, run 1, well a: higher = more light from the Notch target reporter without active Notch
Hit rule: 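Wells with low control signal or poorly matching duplicates excluded; duplicates averaged; per source plate, z beyond ±2 for induced/control log2 ratio or beyond ±1.8 for induced/uninduced marks a hit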
Meaning of the calls: active = modifier hit (raised or lowered Notch signal); inactive = not a hit

| target gene | amplicon | induced reporter light, run 1, well a | induced reporter light, run 1, well b | control promoter light, run 1, well a | control promoter light, run 1, well b | uninduced reporter light, run 1, well a | call |
| --- | --- | --- | --- | --- | --- | --- | --- |
| CG34026 (GeneID 3885569) | DRSC17616 | 94935 | 61195 | 95885 | 71350 | 5778 | inactive |
| Ets98B (GeneID 43334) | DRSC16666 | 28730 | 28480 | 23630 | 24240 | 2088 | inactive |
| CG34305 (GeneID 5740825) | DRSC11995 | 2.03e5 | 2.06e5 | 3.19e5 | 3.08e5 | 17360 | inactive |
| DCTN5-p25 (GeneID 34873) | DRSC03525 | 90995 | 93795 | 1.23e5 | 1.45e5 | 8090 | inactive |
| CG9915 (GeneID 32593) | DRSC21565 | – | – | – | – | – | inactive |
| 14-3-3epsilon (GeneID 42186) | DRSC16370 | 1.14e5 | 1.16e5 | 1.91e5 | 1.79e5 | 10500 | active |
| CdGAPr (GeneID 35267) | DRSC03289 | 68680 | 54320 | 53755 | 88880 | 3875 | inactive |
| Idua (GeneID 34544) | DRSC02941 | 2.17e5 | 2.16e5 | 2.04e5 | 1.84e5 | 17342 | inactive |
| CG14883 (GeneID 41997) | DRSC15007 | 2.11e5 | 2.21e5 | 2.37e5 | 2.28e5 | 18775 | inactive |
| vap (GeneID 32569) | DRSC20275 | 1.73e5 | 1.53e5 | 1.80e5 | 1.74e5 | 11555 | inactive |
| eIF4E3 (GeneID 38923) | DRSC10952 | 90285 | 1.02e5 | 72995 | 29470 | 11935 | inactive |
| raw (GeneID 44851) | DRSC03599 | 66935 | 1.31e5 | 80030 | 1.22e5 | 18810 | inactive |
| raw (GeneID 44851) | DRSC03600 | 74035 | 1.10e5 | 72870 | 60965 | 15845 | inactive |
| CG2747 (GeneID 40950) | DRSC15450 | 95195 | 98745 | 87300 | 58305 | 6675 | inactive |
| CG13117 (GeneID 34289) | DRSC02215 | 1.05e5 | 1.38e5 | 72790 | 84380 | 13975 | inactive |
| Thor (GeneID 33569) | DRSC00770 | 1.72e5 | 1.85e5 | 1.72e5 | 1.64e5 | 13770 | inactive |
| Exn (GeneID 39900) | DRSC09673 | 99720 | 1.06e5 | 76135 | 98320 | 8765 | inactive |
| Exn (GeneID 39900) | DRSC10077 | 2.48e5 | 1.87e5 | 2.54e5 | 2.28e5 | 9610 | inactive |
| Kebab (GeneID 48440) | DRSC00827 | 2.30e5 | 2.24e5 | 1.55e5 | 1.90e5 | 16730 | inactive |
| ZnT41F (GeneID 35513) | DRSC04850 | 1.70e5 | 2.35e5 | 1.72e5 | 1.57e5 | 13300 | inactive |
| hdm (GeneID 31705) | DRSC18013 | 1.45e5 | 1.37e5 | 2.78e5 | 2.39e5 | 10635 | inactive |
| CG6345 (GeneID 41271) | DRSC16024 | 77030 | 77670 | 71955 | 64545 | 4035 | inactive |
| CG12994 (GeneID 50350) | DRSC19192 | 94395 | 1.05e5 | 1.05e5 | 91040 | 7460 | inactive |
| CG12994 (GeneID 50350) | DRSC19514 | 1.40e5 | 1.44e5 | 1.67e5 | 1.50e5 | 14425 | inactive |
| mRpL32 (GeneID 43698) | DRSC14479 | 2.08e5 | 1.73e5 | 2.17e5 | 2.10e5 | 16720 | inactive |
| CG14395 (GeneID 41560) | DRSC14852 | 88370 | 88090 | 86425 | 78755 | 7155 | inactive |
| CG33096 (GeneID 326251) | DRSC14440 | 1.67e5 | 1.69e5 | 2.51e5 | 2.47e5 | 14505 | inactive |
| Ir7e (GeneID 7354417) | DRSC18011 | 1.88e5 | 1.97e5 | 3.12e5 | 3.75e5 | 13835 | inactive |
| E(spl)m2-BFM (GeneID 43155) | DRSC16991 | 15680 | 14205 | 13075 | 12725 | 4070 | inactive |

5 of these entries, reformatted.
target gene | amplicon | induced reporter light, run 1, well a | induced reporter light, run 1, well b | control promoter light, run 1, well a | control promoter light, run 1, well b | uninduced reporter light, run 1, well a | call
CG6345 (GeneID 41271) | DRSC16024 | 77030 | 77670 | 71955 | 64545 | 4035 | inactive
CG12994 (GeneID 50350) | DRSC19192 | 94395 | 1.05e5 | 1.05e5 | 91040 | 7460 | inactive
CG12994 (GeneID 50350) | DRSC19514 | 1.40e5 | 1.44e5 | 1.67e5 | 1.50e5 | 14425 | inactive
mRpL32 (GeneID 43698) | DRSC14479 | 2.08e5 | 1.73e5 | 2.17e5 | 2.10e5 | 16720 | inactive
CG14395 (GeneID 41560) | DRSC14852 | 88370 | 88090 | 86425 | 78755 | 7155 | inactive

The listing continues:
| target gene | amplicon | induced reporter light, run 1, well a | induced reporter light, run 1, well b | control promoter light, run 1, well a | control promoter light, run 1, well b | uninduced reporter light, run 1, well a | call |
| --- | --- | --- | --- | --- | --- | --- | --- |
| CG3407 (GeneID 33606) | DRSC00603 | 1.45e5 | 1.74e5 | 1.37e5 | 1.68e5 | 16280 | inactive |
| CG7131 (GeneID 42197) | DRSC16203 | 2.10e5 | 2.03e5 | 2.95e5 | 2.87e5 | 15310 | inactive |
| Actn3 (GeneID 44964) | DRSC14106 | 2.55e5 | 3.05e5 | 2.92e5 | 2.76e5 | 20370 | inactive |
| Chchd2 (GeneID 32701) | DRSC19931 | 63050 | 65460 | 70570 | 57360 | 8715 | inactive |
| Rassf (GeneID 42734) | DRSC15612 | 1.51e5 | 1.61e5 | 2.13e5 | 2.10e5 | 14230 | inactive |
| mi (GeneID 37723) | DRSC04498 | 1.42e5 | 1.39e5 | 96115 | 87950 | 9845 | inactive |
| Acsx2 (GeneID 42353) | DRSC14308 | 1.92e5 | 1.82e5 | 2.11e5 | 1.99e5 | 12530 | inactive |
| CG6689 (GeneID 41345) | DRSC16095 | 99405 | 1.36e5 | 88865 | 62140 | 9455 | inactive |
| Tep2 (GeneID 34044) | DRSC02679 | 1.74e5 | 1.66e5 | 2.00e5 | 1.96e5 | 8435 | inactive |
| Tep2 (GeneID 34044) | DRSC03451 | 1.93e5 | 2.02e5 | 1.84e5 | 2.29e5 | 8488 | inactive |
| chp (GeneID 43690) | DRSC16925 | 1.52e5 | 1.38e5 | 2.07e5 | 2.19e5 | 13355 | inactive |
| Dyrk3 (GeneID 3885567) | DRSC21055 | 72010 | 74285 | 90070 | 69035 | 5490 | inactive |
| CG13332 (GeneID 36504) | DRSC06367 | 1.01e5 | 1.15e5 | 1.76e5 | 1.72e5 | 11165 | inactive |
| CG15343 (GeneID 31765) | DRSC18028 | 53980 | 62990 | 62575 | 64625 | 3740 | inactive |
| Skp2 (GeneID 40548) | DRSC12329 | 1.33e5 | 1.44e5 | 1.18e5 | 1.25e5 | 8590 | inactive |
| tor (GeneID 35717) | DRSC07707 | 1.96e5 | 1.50e5 | 2.12e5 | 1.70e5 | 15050 | inactive |
| Pfdn6 (GeneID 40176) | DRSC10915 | 57280 | 39815 | 34035 | 31015 | 3810 | inactive |
| CG8773 (GeneID 41634) | DRSC16444 | 1.95e5 | 1.44e5 | 1.70e5 | 1.44e5 | 12700 | inactive |
| Pfdn5 (GeneID 42647) | DRSC16183 | 1.79e5 | 2.03e5 | 2.62e5 | 2.72e5 | 15075 | inactive |
| CG13231 (GeneID 36169) | DRSC06351 | 85755 | 1.23e5 | 1.50e5 | 1.54e5 | 11700 | inactive |
| TyrRS-m (GeneID 37965) | DRSC04286 | 2.18e5 | 1.99e5 | 1.68e5 | 1.91e5 | 15855 | inactive |
